Experimental data as given in PubChem BioAssay AID504467 (National Center for Advancing Translational Sciences (NCATS), 2011).
Out of some 330,000 compounds screened, about 7,700 (2.3%) were called active. Inconclusive means that the source gave no clear call. Such entries were picked first, then a sample of the others. Calls follow the shape of the dose curve; as a rule, active = well fitted inhibition curve with a large enough effect; inconclusive = small, poorly fitted or top-dose-only effect, or effect the other way; inactive = flat fitted curve, though single readings scatter. Where the call is inconclusive, the potency comes from a doubtful curve fit.

experiment: qHTS screen for small molecules that inhibit ELG1-dependent DNA repair in human embryonic kidney (HEK293T) cells expressing luciferase-tagged ELG1; settings: HEK293T ELG1-luciferase reporter, luminescence, 16 h, DNA damage induced by 5-fluorouridine; activity change, negative = inhibition: at 46.1 µM (top of the series); also: nearly all actives have a fitted effect of over 55% in size
Method in brief: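 Luminescence from the luciferase reporter, measured 30 min after ONE-Glo reagent at room temperature, was the read-out. Beforehand, 2,000 cells per well were exposed for 16 hr at 37 °C to 5-fluorouridine together with compound or vehicle.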
% is scaled to controls: 0 for no effect and ±100 for the full control effect; potency is read from the fitted curve at half-maximal effect.

SMILES	Potency	activity change, negative = inhibition
CCc1c(C#N)sc(C(N)=O)c1CC	active: 10.3 µM	–
O=C1CN(C(=O)c2cc(Br)c(Br)s2)c2ccccc2N1	inconclusive: 20.6 µM [inhibitor, partial curve, poor fit]	–
COc1ccc(/C=N/N2CCN(c3ccccc3)CC2)cc1Br	–	inactive: -1.95%
Cc1cc(OCC(=O)N(C)Cc2ccccc2)ccc1Br	inconclusive: 18.3 µM [activator, partial curve]	–
COc1ccc(CNCCS(=O)(=O)NN2CCOCC2)cc1	–	inactive: 19.1%
COc1ccc(-c2nc3c(n2O)CCC/C3=N\O)cc1	inconclusive: 18.4 µM [activator, partial curve]	–
CCCCn1c(N)c(N(CC)C(=O)C2COc3ccccc3O2)c(=O)[nH]c1=O (centres undefined)	inconclusive: 9.2 µM [activator, partial curve]	–
C=CCn1c(SCC(=O)c2cc(C)n(Cc3cccs3)c2C)nnc1-c1ccncc1	active: 16.4 µM	–
COc1ccc(/C=N/NC(=O)c2ccc(C)nc2)cc1O	–	inactive: -8.17%
Nc1ccc(NC(=O)c2cccs2)cc1	inconclusive: 18.3 µM [activator, partial curve]	–
CC(=O)c1ccc(N2CCN(C(=O)CCS(=O)(=O)c3ccc4c(c3)CCN4C(C)=O)CC2)cc1	inconclusive: 1.16 µM [inhibitor, single point]	–
Cc1cc(O)c(NC(=O)c2ccc(C)c([N+](=O)[O-])c2)cc1C	inconclusive: 2.31 µM [activator, full curve]	–
COc1cc(CO)cc(Br)c1OCC(=O)Nc1cccc2ccccc12	inconclusive: 7.3 µM [inhibitor, partial curve, poor fit]	–
Cc1ccccc1OCC(=O)Nc1sc2c(c1C#N)CC(C)(C)NC2(C)C	–	inactive: -13.3%
Clc1ccc(-c2cnc3n2CCC3)cc1	inconclusive: 25.9 µM [activator, partial curve, poor fit]	–
CCOC(=O)c1cn(CC)c2c(ccc3ccccc32)c1=O	inconclusive: 18.3 µM [activator, single point]	–
CCS(=O)(=O)N1Cc2ccccc2CC1C(=O)Nc1cc(S(C)(=O)=O)ccc1Cl (centres undefined)	inconclusive: 9.2 µM [inhibitor, partial curve, poor fit]	–
COc1ccc(C(=O)Nc2ccc3ccccc3c2)cc1OC	inconclusive: 6.51 µM [activator, single point]	–
Cc1cc([N+](=O)[O-])nn1CC(=O)Nc1ccc(Cl)cn1	inconclusive: 14.6 µM [activator, partial curve, poor fit]	–
O=C(COc1ccc(F)cc1Cl)Nc1ccccc1C(=O)N1CCCCC1	inconclusive: 14.6 µM [activator, partial curve]	–
N#Cc1ccc(-c2nc3ccccc3c(=O)n2O)cc1	inconclusive: 18.3 µM [inhibitor, single point]	–
CCS(=O)(=O)Nc1ccc(-c2ccc(NS(=O)(=O)CC)c(OC)c2)cc1OC	active: 23.1 µM	–
Cc1ccc(S(=O)(=O)N(C)C)cc1NC(=S)N1CCN(Cc2ccc3c(c2)OCO3)CC1	active: 8.2 µM	–

SMILES	Potency	activity change, negative = inhibition
COc1ccc(N2CCCn3c2nc2c3c(=O)n(Cc3ccccc3)c(=O)n2C)c(OC)c1	inconclusive: 20.6 µM [inhibitor, partial curve, poor fit]	–
Cc1onc(-c2c(F)cccc2Cl)c1C(=O)OCC(=O)NC(=O)NCC(C)C	–	inactive: -19.8%
COc1ccc(C)cc1-n1c(SCC(=O)NC2CC2)nc2ccccc2c1=O	–	inactive: 9.96%
CCOC(=O)N1CCN(C(=O)C2CCCN(c3ncnc4c3nc3n4CCCCC3)C2)CC1 (centres undefined)	inconclusive: 29.1 µM [inhibitor, single point]	–
Cc1ccc(S(=O)(=O)c2nc(-c3ccccc3Cl)oc2N(C)C)cc1	inconclusive: 13 µM [activator, partial curve]	–
Cc1ccnc(Nc2nc(-c3ccccc3)cs2)c1	inconclusive: 2.91 µM [activator, partial curve]	–
Cc1c(C(=O)NN2CCOCC2)oc2c1ccc1ccccc12	–	inactive: -1.78%
CC(C)CCNC(=O)C12CN(Cc3ccccc3)CC1C(c1ccc([N+](=O)[O-])cc1)=NO2 (centres undefined)	inconclusive: 32.6 µM [inhibitor, single point]	–
COc1ccc(-c2cccc(-c3cc(=O)oc4cc(OC)cc(OC)c34)c2)cc1	inconclusive: 1.16 µM [activator, single point]	–
O=C(Cc1sc(-c2ccccc2)nc1-c1ccccc1)Nc1ccccc1	inconclusive: 23.1 µM [inhibitor, partial curve]	–
Cc1ccc(-c2cc(C(F)F)n3ncc(C(=O)NN4CCCCC4)c3n2)cc1	inconclusive: 3.26 µM [inhibitor, full curve]	–
COc1ccc(C(=O)Nc2cc(Cl)ccc2-n2cncn2)c(OC)c1OC	inconclusive: 20.6 µM [inhibitor, single point]	–
CC1=C/C(=C\c2ccc3c(c2)OCO3)C(=O)S1	–	inactive: -14.8%
S=C(Nc1ccccc1)N1CCn2cccc2C1c1cccnc1 (centres undefined)	–	inactive: -1.03%
CCOc1cc(NC(=S)NCC2CCCO2)c(OCC)cc1NC(=O)c1ccccc1F (centres undefined)	active: 23.1 µM	–
Cc1cccc(Nc2nc(-c3ccccc3)c(C(=O)Nc3cccnc3)s2)c1	active: 13 µM	–
O=C(O)C1CC1C(=O)Nc1nc2c(Cl)cccc2s1 (centres undefined)	inconclusive: 7.3 µM [activator, partial curve]	–
CCNS(=O)(=O)c1ccc(NC(=O)Nc2cc(C)ccc2OC)cc1	inconclusive: 29.1 µM [inhibitor, single point]	–
Cc1ccccc1Oc1cc(NC(=O)Cn2cnc([N+](=O)[O-])c2)cc([N+](=O)[O-])c1	–	inactive: -10.6%
CCCCc1ccc(NC(=O)CC(C)C)cc1	inconclusive: 20.6 µM [activator, partial curve]	–
O=C(Cn1ncc(Cl)c(Cl)c1=O)NC1CCCCC1	inconclusive: 29.1 µM [inhibitor, single point]	–
Cc1ccc(C(=O)Nc2ncccc2S(=O)(=O)c2ccccc2)cc1	inconclusive: 6.51 µM [activator, single point]	–
Cc1cccc(N2CCN(C(=O)Cn3cccc3)CC2)c1C	inconclusive: 32.6 µM [inhibitor, partial curve, poor fit]	–

For convenience, some entries already given.
SMILES	Potency	activity change, negative = inhibition
Cc1cc(O)c(NC(=O)c2ccc(C)c([N+](=O)[O-])c2)cc1C	inconclusive: 2.31 µM [activator, full curve]	–
COc1cc(CO)cc(Br)c1OCC(=O)Nc1cccc2ccccc12	inconclusive: 7.3 µM [inhibitor, partial curve, poor fit]	–
Cc1ccccc1OCC(=O)Nc1sc2c(c1C#N)CC(C)(C)NC2(C)C	–	inactive: -13.3%

(list continues)

SMILES	Potency	activity change, negative = inhibition
COc1ccccc1C(=O)N1CCN(Cc2ccc3c(c2)OCO3)CC1	inconclusive: 20.6 µM [inhibitor, single point]	–
CCOC(=O)C1(Cc2cccc(OC)c2)CCN(Cc2ccccc2)CC1	inconclusive: 18.3 µM [inhibitor, single point]	–
C#CCOCCOCCOCCNc1nc(N2CCOCC2)nc(N2CCN(C(=O)CCCCCCCCCCNC(=O)Cn3cc(CCCCCN)nn3)CC2)n1	–	inactive: -17.4%
COc1ccc(-c2cc(C)no2)cc1S(=O)(=O)Nc1cccc(C)c1	–	inactive: 13.4%
O=C(Nc1ccncc1)c1cc2ccccc2cc1O	inconclusive: 0.58 µM [activator, partial curve]	–
O=C(NCCc1c[nH]c2ccccc12)c1ccc2nc[nH]c2c1	inconclusive: 35.5 µM [activator, single point]	–
COc1ccc(CN(C(=O)c2snc(C(N)=O)c2N)C(CC(C)C)C(=O)NC2CCCCC2)cc1 (centres undefined)	inconclusive: 23.1 µM [inhibitor, single point]	–
CC(=O)N1CCN(c2ccc(Oc3ncnc4sccc34)cc2)CC1	active: 20.6 µM	–
CCCCCCOC(=O)C[N+](C)(C)CCOC1CC2CCC1(C)C2(C)C (centres undefined)	inconclusive: 7.31 µM [inhibitor, partial curve, poor fit]	–
Cc1ccc(-c2nc(NCc3ccco3)n(C(=O)c3ccco3)n2)cc1	inconclusive: 2.91 µM [activator, partial curve, poor fit]	–
N#C/C(=C\c1cccs1)C(=O)c1ccccc1	–	inactive: 12.4%
CCOC(=O)c1ccc(N2CCN(C(=O)c3ccccc3)CC2)c(NC(=O)c2ccco2)c1	inconclusive: 16.4 µM [inhibitor, partial curve]	–
CC(=O)c1cccc(NC(=O)CN2C(=O)NC(C)(c3ccc4c(c3)OCCCO4)C2=O)c1 (centres undefined)	–	inactive: -19.1%
Cc1onc(-c2ccccc2Cl)c1C(=O)Nc1ccccc1C(N)=O	inconclusive: 23.1 µM [inhibitor, partial curve]	–
COc1cccc(NC(=O)COC(=O)c2c3c(nc4ccccc24)CCC(C)C3)c1 (centres undefined)	inconclusive: 7.08 µM [inhibitor, full curve, poor fit]	–
O=C(Nc1nc(-c2cc(Cl)sc2Cl)cs1)c1ccccc1	inconclusive: 16.4 µM [activator, single point]	–
C/C(=N\OCc1cccc(C(=O)O)c1)c1ccc(Cl)cc1	inconclusive: 0.058 µM [activator, full curve, poor fit]	–
CC(=O)c1cccc(CN2CCC(n3nccc3NC(=O)CCCc3ccccc3)CC2)c1	inconclusive: 29.1 µM [inhibitor, single point]	–
CCOc1cc(C(N)=O)cc(Br)c1OCC	active: 8.2 µM	–
CCC1(C)Cc2c(sc3nc(SC)n(Cc4ccccc4)c(=O)c23)CO1 (centres undefined)	inconclusive: 3.66 µM [activator, single point]	–
CC(C)(C)NC(=O)c1cccc(NC(=O)c2ccc3c(c2)C(=O)N(C(C)(C)C)C3=O)c1	inconclusive: 4.11 µM [inhibitor, single point]	–
Cc1cccc(NC(=O)CSc2ccc(-c3cccs3)nn2)c1C	inconclusive: 13 µM [activator, partial curve, poor fit]	–
Nc1ccc(C(=O)OCCc2ccccc2)cc1	inconclusive: 11.2 µM [activator, single point]	–
